The values that follow come from the supplement of paper PMC8728848.

The list shows a part of the results.

Experiment in all cases: glycan array binding signal (z-score within array); higher = stronger binding
Common to all, as to details: glycan notation: IUPAC condensed, linker removed

The target of one experiment is GlcNAc(b1-3)Gal(b1-4)Glc. An outline of the steps: (§1)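 Negative Z-scores can be read as non-binding. The Z-score is calculated within each array and then averaged across arrays of one protein sequence at different concentrations or buffers and across linkers. Arrays, 3228 in all, were curated from the Consortium for Functional Glycomics database and kept only where the protein sequence was available.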

The target in experiment [1] is GlcNAc(b1-3)Gal(b1-4)GlcNAc. An outline of the steps: as §1
For experiment [2], the target named is GlcNAc(b1-3)Gal(b1-4)GlcNAc(b1-2)Man(a1-3)[GlcNAc(b1-3)Gal(b1-4)GlcNAc(b1-2)Man(a1-6)]Man(b1-4)GlcNAc(b1-4)GlcNAc. The essentials: as §1
Experiment [3] deals with GlcNAc(b1-3)Gal(b1-4)GlcNAc(b1-2)Man(a1-3)[GlcNAc(b1-3)Gal(b1-4)GlcNAc(b1-2)Man(a1-6)]Man(b1-4)GlcNAc(b1-4)[Fuc(a1-6)]GlcNAc. An outline of the steps: as §1
In experiment [4] the target is GlcNAc(b1-3)Gal(b1-4)GlcNAc(b1-2)[GlcNAc(b1-3)Gal(b1-4)GlcNAc(b1-6)]Man(a1-6)[GlcNAc(b1-3)Gal(b1-4)GlcNAc(b1-2)Man(a1-3)]Man(b1-4)GlcNAc(b1-4)GlcNAc. The essentials:
as §1

Experiment [5] addresses GlcNAc(b1-3)Gal(b1-4)GlcNAc(b1-3)Gal(b1-4)GlcNAc. An outline of the steps:
as §1

Experiment [6] concerns the target GlcNAc(b1-3)Gal(b1-4)GlcNAc(b1-3)Gal(b1-4)GlcNAc(b1-2)Man(a1-3)[GlcNAc(b1-3)Gal(b1-4)GlcNAc(b1-3)Gal(b1-4)GlcNAc(b1-2)Man(a1-6)]Man(b1-4)GlcNAc(b1-4)GlcNAc. An outline of the steps: as §1
The target in experiment [7] is GlcNAc(b1-3)Gal(b1-4)GlcNAc(b1-3)Gal(b1-4)GlcNAc(b1-2)Man(a1-3)[GlcNAc(b1-3)Gal(b1-4)GlcNAc(b1-3)Gal(b1-4)GlcNAc(b1-2)Man(a1-6)]Man(b1-4)GlcNAc(b1-4)[Fuc(a1-6)]GlcNAc. An outline of the steps: as §1
In experiment [8] the target is GlcNAc(b1-3)Gal(b1-4)GlcNAc(b1-3)Gal(b1-4)GlcNAc(b1-2)[GlcNAc(b1-3)Gal(b1-4)GlcNAc(b1-3)Gal(b1-4)GlcNAc(b1-6)]Man(a1-6)[GlcNAc(b1-3)Gal(b1-4)GlcNAc(b1-3)Gal(b1-4)GlcNAc(b1-2)Man(a1-3)]Man(b1-4)GlcNAc(b1-4)[Fuc(a1-6)]GlcNAc. An outline of the steps:
as §1

In experiment [9] the target is GlcNAc(b1-3)Gal(b1-4)GlcNAc(b1-3)Gal(b1-4)GlcNAc(b1-3)Gal(b1-4)GlcNAc(b1-2)Man(a1-3)[GlcNAc(b1-3)Gal(b1-4)GlcNAc(b1-3)Gal(b1-4)GlcNAc(b1-3)Gal(b1-4)GlcNAc(b1-2)Man(a1-6)]Man(b1-4)GlcNAc(b1-4)GlcNAc. The essentials: as §1
For experiment [10], the target named is GlcNAc(b1-3)Gal(b1-4)GlcNAc(b1-3)Gal(b1-4)GlcNAc(b1-3)Gal(b1-4)GlcNAc(b1-2)Man(a1-3)[GlcNAc(b1-3)Gal(b1-4)GlcNAc(b1-3)Gal(b1-4)GlcNAc(b1-3)Gal(b1-4)GlcNAc(b1-2)Man(a1-6)]Man(b1-4)GlcNAc(b1-4)[Fuc(a1-6)]GlcNAc. The essentials: as §1
For experiment [11], the target named is GlcNAc(b1-3)Gal(b1-4)GlcNAc(b1-3)Gal(b1-4)GlcNAc(b1-3)Gal(b1-4)GlcNAc(b1-2)[GlcNAc(b1-3)Gal(b1-4)GlcNAc(b1-3)Gal(b1-4)GlcNAc(b1-3)Gal(b1-4)GlcNAc(b1-6)]Man(a1-6)[GlcNAc(b1-3)Gal(b1-4)GlcNAc(b1-3)Gal(b1-4)GlcNAc(b1-3)Gal(b1-4)GlcNAc(b1-2)Man(a1-3)]Man(b1-4)GlcNAc(b1-4)[Fuc(a1-6)]GlcNAc. An outline of the steps: as §1
Experiment [12] concerns the target GlcNAc(b1-3)Gal(b1-4)GlcNAc(b1-3)Gal(b1-4)GlcNAc(b1-3)Gal(b1-4)GlcNAc(b1-3)Gal(b1-4)GlcNAc(b1-2)Man(a1-3)[GlcNAc(b1-3)Gal(b1-4)GlcNAc(b1-3)Gal(b1-4)GlcNAc(b1-3)Gal(b1-4)GlcNAc(b1-3)Gal(b1-4)GlcNAc(b1-2)Man(a1-6)]Man(b1-4)GlcNAc(b1-4)GlcNAc. An outline of the steps: as §1
The target of experiment [13] is GlcNAc(b1-3)Gal(b1-4)GlcNAc(b1-3)Gal(b1-4)GlcNAc(b1-3)Gal(b1-4)GlcNAc(b1-3)Gal(b1-4)GlcNAc(b1-2)Man(a1-3)[GlcNAc(b1-3)Gal(b1-4)GlcNAc(b1-3)Gal(b1-4)GlcNAc(b1-3)Gal(b1-4)GlcNAc(b1-3)Gal(b1-4)GlcNAc(b1-2)Man(a1-6)]Man(b1-4)GlcNAc(b1-4)[Fuc(a1-6)]GlcNAc. The essentials:
as §1

In experiment [14] the target is GlcNAc(b1-3)Gal(b1-4)GlcNAc(b1-3)Gal(b1-4)GlcNAc(b1-3)Gal(b1-4)GlcNAc(b1-3)Gal(b1-4)GlcNAc(b1-2)[GlcNAc(b1-3)Gal(b1-4)GlcNAc(b1-3)Gal(b1-4)GlcNAc(b1-3)Gal(b1-4)GlcNAc(b1-3)Gal(b1-4)GlcNAc(b1-6)]Man(a1-6)[GlcNAc(b1-3)Gal(b1-4)GlcNAc(b1-3)Gal(b1-4)GlcNAc(b1-3)Gal(b1-4)GlcNAc(b1-3)Gal(b1-4)GlcNAc(b1-2)Man(a1-3)]Man(b1-4)GlcNAc(b1-4)[Fuc(a1-6)]GlcNAc. The essentials:
as §1

The target in experiment [15] is GlcNAc(b1-3)Gal(b1-4)GlcNAc(b1-3)Gal(b1-4)GlcNAc(b1-3)GalNAc. An outline of the steps:
as §1

Experiment [16] addresses GlcNAc(b1-3)Gal(b1-4)GlcNAc(b1-3)GalNAc. An outline of the steps:
as §1

Experiment [17] deals with GlcNAc(b1-3)Gal(b1-4)GlcNAc(b1-3)[GlcNAc(b1-3)Gal(b1-4)GlcNAc(b1-3)]GalNAc. An outline of the steps: as §1
Experiment [18] deals with GlcNAc(b1-3)Gal(b1-4)GlcNAc(b1-6)[Gal(b1-3)]GalNAc. An outline of the steps:
as §1

The target of experiment [19] is GlcNAc(b1-3)Gal(b1-4)GlcNAc(b1-6)[GlcNAc(b1-3)Gal(b1-3)]GalNAc. The essentials: as §1
In experiment [20] the target is GlcNAc(b1-3)Gal(b1-4)GlcNAc(b1-6)[GlcNAc(b1-3)]Gal(b1-4)GlcNAc. The essentials: as §1
For a further experiment, the target named is GlcNAc(b1-3)GalNAc. An outline of the steps:
as §1

B1: FimA-N2 (Actinomyces oris) (protein)
chain: MHHHHHHSSGVDLGTENLYFQSNAWIYDVNVYPKNEAIDVDKTIQAQKLNGYGVGSLIKFPVESTAPTLDAKSFYKYFQLKDTLDERLSEVTATDVSLEGTPLQPTDYKVETKQQTVTVTFTAEGLKKIKAAPGKKVSAVFQGKVTKAGNGAITNRAQVISDTLYAEQPPTPETPPTDPENPPTSDEVISRWGDLSIKKVDTHQQGQTKA
On to B1, for which the “glycan array binding signal (z-score)” value with GlcNAc(b1-3)Gal(b1-4)Glc is 0.135; in experiment [1], 0.299; in [2] it was -0.627; in experiment [3], 1.07; in experiment [4] it was 0.771; in experiment [5], 0.008. In addition, the “glycan array binding signal (z-score)” value was 0.158 in [6]; -0.07 in experiment [7]; 0.41 in experiment [8]; -0.122 in experiment [9]; 1.93 in experiment [10]; -0.448 in experiment [11]. The “glycan array binding signal (z-score)” value was -0.523 in experiment [12]; -0.772 in experiment [13]; 0.564 in experiment [14]; -1.1 in experiment [15]; -0.701 in experiment [16]; -0.062 in experiment [17]. In addition, the “glycan array binding signal (z-score)” value in [18] was -0.726; in experiment [19] it was -0.947; in experiment [20], -0.903; with GlcNAc(b1-3)GalNAc it was -0.104.
